PubChem BioAssay AID1159578 | Peter MacCallum Cancer Centre | 2015

Test: 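Knock-downs that alter how fast lymphatic endothelial cells migrate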 (primary screen)
Cells: human lymphatic endothelial cells
Knock-down reagent: siRNA pool against human genes, 40 nM
Timing: 48 h after transfection
Measurement: 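High-content imaging of dye-stained cells in a scratch assay measures filled wound area and nuclei per well; duplicate means given as ratio to mock and robust z-score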
Direction: migration robust z-score: higher = faster migration into the scratch; nuclei per well: higher = more cells in the well
Rule for the call: 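Pools averaging fewer than 3300 nuclei are never called; remaining pools count as changed when migration robust z lies outside -2 to 2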
Meaning of the calls: active = migration changed; inactive = no migration change, or too few cells
The whole screen tested about 18,000 reagents; below is a part drawn at random. In the full data, about 1,030 (5.7%) are marked active. 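Inactive calls also include pools with fewer than 3300 nuclei, whose migration was not assessed.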 Raw values vary from plate to plate and are shown uncorrected. Further read-outs or replicates are left out here. Reagent sequences are not shown.

SLC29A1
- migration robust z-score: -0.1
- migration class with cell-count check: migration z between -2 and 2; enough cells
- nuclei per well, duplicate mean: 4792
- outcome: inactive

DSCC1
- migration robust z-score: -0.47
- migration class with cell-count check: migration z between -2 and 2; enough cells
- nuclei per well, duplicate mean: 4934
- outcome: inactive

ALG8
- migration robust z-score: 0.42
- migration class with cell-count check: migration z between -2 and 2; enough cells
- nuclei per well, duplicate mean: 5974
- outcome: inactive

RIPK3
- migration robust z-score: 0.9
- migration class with cell-count check: migration z between -2 and 2; enough cells
- nuclei per well, duplicate mean: 5616
- outcome: inactive

H2AC25
- migration robust z-score: -0.12
- migration class with cell-count check: migration z between -2 and 2; enough cells
- nuclei per well, duplicate mean: 5500
- outcome: inactive

SMC6
- migration robust z-score: -0.06
- migration class with cell-count check: migration z between -2 and 2; enough cells
- nuclei per well, duplicate mean: 6138
- outcome: inactive

SLC61A1
- migration robust z-score: 0.86
- migration class with cell-count check: migration z between -2 and 2; enough cells
- nuclei per well, duplicate mean: 7749
- outcome: inactive

ABHD12
- migration robust z-score: -0.18
- migration class with cell-count check: migration z between -2 and 2; enough cells
- nuclei per well, duplicate mean: 6274
- outcome: inactive

LINC03124
- migration robust z-score: 0.36
- migration class with cell-count check: migration z between -2 and 2; enough cells
- nuclei per well, duplicate mean: 7752
- outcome: inactive

REEP4
- migration robust z-score: 2.34
- migration class with cell-count check: migration z above 2; enough cells
- nuclei per well, duplicate mean: 6095
- outcome: active

RMDN1
- migration robust z-score: -3.13
- migration class with cell-count check: migration z below -2; enough cells
- nuclei per well, duplicate mean: 4032
- outcome: active

SF3B2
- migration robust z-score: -2.04
- migration class with cell-count check: migration z below -2; enough cells
- nuclei per well, duplicate mean: 3972
- outcome: active

PRICKLE1
- migration robust z-score: 0.46
- migration class with cell-count check: migration z between -2 and 2; enough cells
- nuclei per well, duplicate mean: 5394
- outcome: inactive

CD72
- migration robust z-score: -0.44
- migration class with cell-count check: migration z between -2 and 2; enough cells
- nuclei per well, duplicate mean: 7438
- outcome: inactive

RAB12
- migration robust z-score: -0.18
- migration class with cell-count check: migration z between -2 and 2; enough cells
- nuclei per well, duplicate mean: 5088
- outcome: inactive

LBX2
- migration robust z-score: -0.64
- migration class with cell-count check: migration z between -2 and 2; enough cells
- nuclei per well, duplicate mean: 5842
- outcome: inactive

RAB2A
- migration robust z-score: -0.64
- migration class with cell-count check: migration z between -2 and 2; enough cells
- nuclei per well, duplicate mean: 5988
- outcome: inactive

FOSL2
- migration robust z-score: -1.48
- migration class with cell-count check: migration z between -2 and 2; enough cells
- nuclei per well, duplicate mean: 4906
- outcome: inactive

TEKTL1
- migration robust z-score: -1.19
- migration class with cell-count check: migration z between -2 and 2; enough cells
- nuclei per well, duplicate mean: 5812
- outcome: inactive

SLTM
- migration robust z-score: 0.3
- migration class with cell-count check: migration z between -2 and 2; enough cells
- nuclei per well, duplicate mean: 6352
- outcome: inactive

TAS2R14
- migration robust z-score: -0.17
- migration class with cell-count check: migration z between -2 and 2; enough cells
- nuclei per well, duplicate mean: 5624
- outcome: inactive

Only “migration class with cell-count check” (2 entries from above):
RAB12 = migration z between -2 and 2; enough cells
LBX2 = migration z between -2 and 2; enough cells
